Data reported in paper PMC5590987.
These are yes or no findings as the source states them, for the method shown. In cells and extracts the contact can be indirect. Some results given as binding are weak or reduced against the parent protein; the word gives no strength.

By UniProt entry, the sequences of proteins in these tests, tags left out.
UniProt A0A096MJY4: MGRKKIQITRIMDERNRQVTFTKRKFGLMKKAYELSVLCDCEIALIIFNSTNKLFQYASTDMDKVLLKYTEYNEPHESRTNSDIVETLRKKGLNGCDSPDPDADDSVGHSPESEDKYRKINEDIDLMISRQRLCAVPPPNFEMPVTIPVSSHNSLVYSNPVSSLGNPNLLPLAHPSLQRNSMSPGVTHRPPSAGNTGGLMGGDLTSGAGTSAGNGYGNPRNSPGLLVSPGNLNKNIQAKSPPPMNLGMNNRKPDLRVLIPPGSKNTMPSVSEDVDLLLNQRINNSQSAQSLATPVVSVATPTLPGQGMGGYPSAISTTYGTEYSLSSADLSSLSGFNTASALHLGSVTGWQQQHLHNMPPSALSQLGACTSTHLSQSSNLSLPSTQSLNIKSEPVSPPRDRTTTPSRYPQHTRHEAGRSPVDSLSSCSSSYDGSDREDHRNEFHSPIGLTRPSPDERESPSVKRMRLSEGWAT

Biological target: T1, NFATc3 (rat (endogenous in neonatal rat cardiomyocytes))
T1 sequence: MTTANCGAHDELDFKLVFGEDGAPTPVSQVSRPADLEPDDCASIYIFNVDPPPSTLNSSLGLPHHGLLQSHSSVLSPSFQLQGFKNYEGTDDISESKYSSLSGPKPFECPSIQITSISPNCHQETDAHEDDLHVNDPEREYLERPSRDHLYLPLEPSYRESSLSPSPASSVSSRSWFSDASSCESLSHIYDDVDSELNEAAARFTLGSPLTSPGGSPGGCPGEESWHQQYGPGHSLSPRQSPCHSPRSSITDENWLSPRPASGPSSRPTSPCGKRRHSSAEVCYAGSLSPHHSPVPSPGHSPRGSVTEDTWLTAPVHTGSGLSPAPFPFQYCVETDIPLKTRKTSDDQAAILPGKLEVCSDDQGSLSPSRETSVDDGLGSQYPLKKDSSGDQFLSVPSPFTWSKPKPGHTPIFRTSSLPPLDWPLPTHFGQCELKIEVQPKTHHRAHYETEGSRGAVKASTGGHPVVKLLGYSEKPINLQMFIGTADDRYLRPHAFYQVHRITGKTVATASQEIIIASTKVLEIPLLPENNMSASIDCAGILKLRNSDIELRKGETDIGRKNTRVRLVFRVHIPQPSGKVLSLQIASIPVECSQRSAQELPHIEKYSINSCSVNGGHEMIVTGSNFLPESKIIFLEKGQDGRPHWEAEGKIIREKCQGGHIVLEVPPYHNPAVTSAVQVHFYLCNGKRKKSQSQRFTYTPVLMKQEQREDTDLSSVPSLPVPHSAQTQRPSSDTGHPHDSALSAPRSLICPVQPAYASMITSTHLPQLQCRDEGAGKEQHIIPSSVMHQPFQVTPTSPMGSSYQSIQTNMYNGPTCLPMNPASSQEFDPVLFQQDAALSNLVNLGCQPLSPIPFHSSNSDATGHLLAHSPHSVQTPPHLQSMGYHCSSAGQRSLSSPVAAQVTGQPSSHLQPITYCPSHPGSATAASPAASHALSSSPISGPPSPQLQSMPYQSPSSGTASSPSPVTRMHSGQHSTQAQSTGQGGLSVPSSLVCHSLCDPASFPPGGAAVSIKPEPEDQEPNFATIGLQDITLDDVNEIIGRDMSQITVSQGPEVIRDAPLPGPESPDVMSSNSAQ
Test: co-IP; 1 mg protein extract of neonatal rat cardiomyocytes (RIPA buffer) immunoprecipitated overnight at 4°C with 5 μg anti-NFAT (ab 2722) or anti-MEF-2c (C-21X), recovered on Protein A Sepharose CL-4B, Western blot with anti-MEF-2c

binding: binds
Substance: MEF-2c (from UniProt A0A096MJY4 1-473)
